Target: T1, Solute carrier family 22 member 1 (Homo sapiens, UniProt O15245)
T1 sequence (O15245 whole entry): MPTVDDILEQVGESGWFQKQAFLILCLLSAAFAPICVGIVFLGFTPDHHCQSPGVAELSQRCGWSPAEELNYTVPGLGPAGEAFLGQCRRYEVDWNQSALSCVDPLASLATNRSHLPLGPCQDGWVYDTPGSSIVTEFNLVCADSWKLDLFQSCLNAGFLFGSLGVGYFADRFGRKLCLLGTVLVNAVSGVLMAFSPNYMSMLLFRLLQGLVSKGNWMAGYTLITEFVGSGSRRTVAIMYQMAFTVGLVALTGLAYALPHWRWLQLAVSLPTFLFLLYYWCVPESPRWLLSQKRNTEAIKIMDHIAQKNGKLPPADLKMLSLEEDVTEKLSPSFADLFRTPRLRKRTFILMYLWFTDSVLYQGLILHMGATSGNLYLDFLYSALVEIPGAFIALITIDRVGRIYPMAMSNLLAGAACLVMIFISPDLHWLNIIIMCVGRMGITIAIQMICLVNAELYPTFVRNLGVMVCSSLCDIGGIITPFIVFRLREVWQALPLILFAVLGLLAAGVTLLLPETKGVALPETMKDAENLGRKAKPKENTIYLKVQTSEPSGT
Assay type: cell-based, HEK293

`CN1[C@@H]2CC[C@H]1C[C@@H](OC(=O)C(CO)c1ccccc1)C2` (stereo partly specified) [ATROPINE] gave an IC50 of 12.2 µM.

Reference: ChEMBL document CHEMBL1140113, “Structural requirements for drug inhibition of the liver specific human organic cation transport protein 1” (J Med Chem, 2008)
